Here are results for four substances from PMC8698454 (Antibiotics, 2021).

Series [1] is described as follows: general procedure: Fmoc solid-phase peptide synthesis; Rink Amide HL 100-200 mesh (0.98 mmol/g) for linear peptides; 2-chlorotrityl chloride resin (1.63 mmol/g) for cyclic pep; HBTU/HOBt/DIPEA; PyBOP/DIPEA for cyclization. Conditions: whole synthesis.
Series [2] in a line: general procedure: Fmoc solid-phase peptide synthesis; 2-chlorotrityl chloride resin; HBTU/HOBt/DIPEA; PyBOP/DIPEA for cyclization. Conditions: whole synthesis, scale 0.18 mmol.

In series [1] (scale 0.21 mmol), N3-PEG200-RWWRF had an isolated mass of 44.4 mg and an isolated yield of 17.2%.

With N3-PEG400-RWWRF, in series [1] (scale 0.21 mmol), the isolated mass amounted to 31.5 mg and the isolated yield is recorded as 18.3%.

For RWWRFK(N3), in series [1] (scale 0.18 mmol), the isolated mass is on record as 18.0 mg and the isolated yield came out at 9.9%.

Regarding c(RWWRFK(N3)), in series [2], the isolated mass is on record as 22 mg and the isolated yield came to 12.3%.
